Record: PubChem BioAssay AID504786 (Drosophila RNAi Screening Center, 2011)
Test: 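Knock-downs reducing HIF reporter induction by the iron chelator DFO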 (primary screen). System: Drosophila S2 cells with a stable HIF luciferase reporter. Knock-down reagent: long dsRNA against Drosophila genes, about 0.2 µg dsRNA per well of a 384-well plate. Time to read-out: three days of knock-down, then 20 h of DFO before reading. Challenge: desferrioxamine (DFO) at 100 µM, an iron chelator that mimics hypoxia, for 20 h. Measured: 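Firefly luciferase driven by the mouse ldh-a hypoxia-response element, measured after 20 h of 100 µM DFO; z-scores per plate, higher means more signal lost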. Scale: z-score: higher = stronger loss of HIF reporter signal.
The screen tested about 21,000 reagents; below is an unselected part of those that have a named target and a result. 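Primary screen; positive scores mean lost reporter signal, so the sign may be inverted from the usual convention.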 Further read-outs or replicates are left out here.

z-score, replicate 1, by gene and reagent
Tbc1d22: DRSC15867 -0.2
Oda: DRSC07626 -0.2
CG30486: DRSC06680 -0.3
CG34282: DRSC16298 -1.1
CG12991: DRSC19511 -0.2
Sp7: DRSC15461 -0.5
CG44837: DRSC10133 0.2; DRSC10558 -0.2
Elp4: DRSC02999 -0.4
gprs: DRSC06761 0.4
CG3517: DRSC15492 -0.7
Tb: DRSC15815 -0.3
CG5080: DRSC00677 -0.2
RhoGAP18B: DRSC19763 -0.6; DRSC20047 -0.6; DRSC20048 -0.7; DRSC20049 0.1
CG17329: DRSC01926 3.3
ssx: DRSC18492 1.3
Lapsyn: DRSC04249 -0.3
neb: DRSC03577 -0.1
CG7747: DRSC07038 -0.2
CG15650: DRSC04241 -0.4
CG10512: DRSC11615 -0.2
how: DRSC16966 1.8
CG43795: DRSC04192 -0.3; DRSC04193 -0.3; DRSC04194 -0.3; DRSC04309 -0.4; DRSC04310 -0.3
E(bx): DRSC08172 -0.3; DRSC08509 -0.2; DRSC08583 -0.2
dpr16: DRSC12217 -0.1; DRSC12249 0.1
Parp16: DRSC06597 -0.3
CG10481: DRSC02063 -0.4
CG8563: DRSC10996 0
CG10031: DRSC00286 -0.4
CG15403: DRSC00417 -0.2
Pss: DRSC11757 -0.2
CG1233: DRSC08269 -0.2
CG11808: DRSC06088 -0.2
Vps39: DRSC16205 -0.2
CG8008: DRSC07053 -0.4

Records above whose target name begins with S or s:
z-score, replicate 1, by gene and reagent
Sp7: DRSC15461 -0.5
ssx: DRSC18492 1.3

The results go on:
z-score, replicate 1, by gene and reagent
Npc2g: DRSC14296 -0.5
Usp20-33: DRSC07196 -0.3
kl-5 (retired record): DRSC20707 -0.1; DRSC20736 0.2; DRSC20773 -0.2; DRSC21161 0
Dro: DRSC07406 -0.3
Prosbeta2R1: DRSC18154 -0.3
mRpS14: DRSC19444 0.7
Npc2b: DRSC15464 -0.1
CG13454: DRSC10001 0.7
REPTOR-BP: DRSC02683 -0.3
CG13360: DRSC18536 -0.1
Syx4: DRSC18586 -0.3
CG5346: DRSC15778 0.8
AhcyL2: DRSC14107 -0.4
gd: DRSC20336 -0.3
mrn: DRSC10913 -0.4
CG15676: DRSC04267 -0.2
CG15025: DRSC15031 -0.5
CG32832: DRSC01562 -0.2
CG33271: DRSC10583 -0.4
chn: DRSC06086 0.2
CG15649: DRSC04240 -0.3
e: DRSC16936 -0.1
Nmdar2: DRSC18183 -0.4; DRSC18511 -0.3; DRSC18569 -0.3
CG18788: DRSC02697 -0.4
Zw10: DRSC18793 -0.4
CG42788: DRSC15330 -0.5; DRSC16139 -0.2; DRSC16152 -0.2
Dscam3: DRSC14525 -0.2; DRSC16376 -0.5
egl: DRSC04682 -0.3
CG13121 (retired record): DRSC02217 -0.3
Or19a: DRSC20684 -0.2
